{"source": "PubChem BioAssay AID1347423", "about": "(Functional Genomics Laboratory (NCATS/FGL), 2020)", "note": "Hit rate of the full screen: of about 52,000 sequences, about 210 (0.4%) were called active.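 The calls were made as follows: active = gene whose silencing raises cell survival under the drug, median off-target-corrected z-score across its silencing RNAs 2 or more; inactive = the rest.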 The list shows a part of the results.", "data": [{"assay": "Resistance to Poly (ADP-Ribose) Polymerase inhibitor: Gene Identification via Genome-wide siRNA Screen", "conditions": "mouse BRCA2 R2336H ES cells, olaparib, CellTiter-Glo viability; active compounds read high", "method_in_brief": "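Genome-wide siRNA screen (3 siRNAs/gene, 20 nM) in mouse ES cells carrying hypomorphic BRCA2 R2336H; olaparib 500 nM added 48 h post-transfection, CellTiter-Glo viability 72 h later. Normalized to plate-median negative control; MAD z-scores, gene median, seed-adjusted.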", "values": [{"sequence": "CGCGCAGAUGCACCAGAUUTT against 2610028H24Rik", "z-score": "inactive: -1.69"}, {"sequence": "CCUUUUAUCACAUUCGGAGTT against Rnf133", "z-score": "inactive: 2.38"}, {"sequence": "GGGUAUAAAUGCCAGUAAATT against C230050L11", "z-score": "inactive: -0.464"}, {"sequence": "GGACCAAAGUUCUAAGUUUTT against 4933430J11", "z-score": "inactive: 0.23"}, {"sequence": "CGGUUUCUAAAAGAAUUGGTT against Syt14l", "z-score": "inactive: 0.039"}, {"sequence": "GGCAUUUUACCAGCGAAGCTT against Klhl5", "z-score": "inactive: -1.28"}, {"sequence": "GGCAUCUGCUUUUCAGAAATT against Ube2h", "z-score": "inactive: 0.552"}, {"sequence": "GGAAGCAACCCAAGGAUAATT against Syt8", "z-score": "inactive: -0.769"}, {"sequence": "GCUAAGCUACAUUUCCAAATT against Pycard", "z-score": "inactive: 0.387"}, {"sequence": "GGAAGAGAUCCUAAUAAAGTT against AV216087", "z-score": "inactive: 0.635"}, {"sequence": "GCUGCUUGUUAAGCUUUUUTT against Th1l", "z-score": "inactive: -1.66"}, {"sequence": "GGAAGAGUGUAGGGCUUACTT against Htr1a", "z-score": "inactive: 0.474"}, {"sequence": "GGGACAACACUCUUUUACUTT against Nab2", "z-score": "inactive: 0.278"}, {"sequence": "GGCCAUUGAGUGCUCCUACTT against Dhcr7", "z-score": "inactive: -0.525"}, {"sequence": "GCUGGACCUUCGAAGGUUUTT against Pltp", "z-score": "inactive: -0.759"}, {"sequence": "GCGAGCAAGUGAAAACGCATT against Sumf1", "z-score": "inactive: 0.87"}, {"sequence": "CCAUGUUACAUGAAAUAGUTT against Bhc80", "z-score": "inactive: 0.116"}, {"sequence": "GGCCGAAAGAUAAAAACAGTT against Rad51l3", "z-score": "inactive: 1.08"}, {"sequence": "GGAAUAACACCUCUGUCCCTT against Hspa12a", "z-score": "inactive: -0.185"}, {"sequence": "GGAAUGUGAGCUUAUCAUATT against Tlr1", "z-score": "inactive: 1.66"}, {"sequence": "GCUCCCAGUUCUCUUUCUUTT against Defb49", "z-score": "inactive: 0.673"}, {"sequence": "GGCUGCUGGUCAGUUAUGATT against Glrb", "z-score": "inactive: 0.997"}, {"sequence": "GGAAUCGUACUUCCACUAGTT against AI854703", "z-score": "inactive: 2.59"}, {"sequence": "GGACUUGAAGAACUGUUAUTT against Stch", "z-score": "inactive: 0.603"}, {"sequence": "GCGAAGUUACUACAGACGUTT against Slc39a1", "z-score": "inactive: 0.822"}, {"sequence": "CCUUUAACCCUUUACACCUTT against E130012A19Rik", "z-score": "inactive: -0.141"}, {"sequence": "GGAUGUAGGCAGUAGUAGCTT against 4931428F04Rik", "z-score": "inactive: 1.62"}, {"sequence": "CCUUUGUCUUUGGUAAAUCTT against BC053917", "z-score": "inactive: -0.257"}, {"sequence": "GGUUCAGCUCAUAUAUAAUTT against D630029K05Rik", "z-score": "inactive: -0.0583"}, {"sequence": "CCAAUUCAAUUAGACUAGATT against 9430015G10Rik", "z-score": "inactive: 0.926"}, {"sequence": "GGAAAUCUUCAGAAAAAGATT against Gucy1a3", "z-score": "inactive: -1.61"}, {"sequence": "GCUUCCUACAAUUAAUUCATT against Prkrir", "z-score": "inactive: 0.639"}, {"sequence": "GGGCCUGAAAAGACCAUCATT against Olfr124", "z-score": "inactive: -0.735"}, {"sequence": "CCUCAUUUCAACCAUUCACTT against Lyzl6", "z-score": "inactive: 0.136"}, {"sequence": "GCAAUAAGGUAAAUGACUATT against C130058G22Rik", "z-score": "inactive: -0.162"}, {"sequence": "GUUCACCGACAAGAGCUGCTT against LOC541307", "z-score": "inactive: -0.255"}, {"sequence": "GGGCUAUGGCUCCUUUGUGTT against Rhpn1", "z-score": "inactive: 0.487"}, {"sequence": "CUACUUCGAGAACAUGGGUTT against Gtrgeo22", "z-score": "inactive: -0.406"}, {"sequence": "GCUAUAUCUAAAGCUAUUCTT against Sgpp1", "z-score": "active: 0.574"}, {"sequence": "GCAGGUAGCUAAAGAAAACTT against Rangnrf", "z-score": "inactive: -0.243"}, {"sequence": "GGUAUUUCGAAACCUCCGUTT against H2-Q10", "z-score": "inactive: 1.27"}, {"sequence": "GGCUCAUCAUUGAGAACAUTT against Zmym1", "z-score": "inactive: -0.404"}, {"sequence": "GCGAUCACAGACAUCAUUGTT against Rabgef1", "z-score": "inactive: -0.0321"}, {"sequence": "GGAGUUAAGAAAGAAAACATT against 1700023B02Rik", "z-score": "inactive: 0.354"}, {"sequence": "GGUCUUUCAUUGAAGCUGATT against Il1b", "z-score": "inactive: 1.54"}, {"sequence": "GGAAUUAAACCAUUUCAGUTT against 6030404E16Rik", "z-score": "inactive: -0.0932"}, {"sequence": "GGAGAUGGGUUUAAGCCCUTT against Scube3", "z-score": "inactive: -0.254"}, {"sequence": "GCCUGGGUAUGAAGAAAUUTT against Pla2g2f", "z-score": "inactive: -0.337"}, {"sequence": "GGCUAAAUUAUUGCGCAAATT against C1qbp", "z-score": "inactive: -0.998"}, {"sequence": "GGAGCUGUCAUUUAAGAAATT against 9430041O17Rik", "z-score": "inactive: 0.957"}, {"sequence": "UUUAAGGAUCUCGUGCGAATT against Olfr809", "z-score": "inactive: -0.81"}, {"sequence": "GGCCAUCAAGGUCUUUUCUTT against ORF19", "z-score": "inactive: -0.164"}, {"sequence": "GGGAGGAUCAAGGCCUUCUTT against Olfr62", "z-score": "inactive: 0.928"}, {"sequence": "GCAGUGGUUAUCCAAGUAUTT against Chrm1", "z-score": "inactive: -2"}, {"sequence": "GGUUCUUAGGAGUUAACUCTT against Klf16", "z-score": "inactive: 0.459"}, {"sequence": "GGUAUACGUCUGAUAAUGATT against Calmbp1", "z-score": "inactive: 0.883"}, {"sequence": "GCUGCACGAUCGGAAUGGUTT against Gm1395", "z-score": "inactive: -2.15"}, {"sequence": "GGCAUAUGACCAUCAUAAUTT against Porcn", "z-score": "inactive: 0.147"}, {"sequence": "CGAAUUAUAGCAUUCAGCCTT against Map3k3", "z-score": "inactive: 0.789"}, {"sequence": "GGAUAUUUGGAGAGAGAGGTT against Lrrn2", "z-score": "inactive: 0.112"}, {"sequence": "CGACUACCUGGAUAUCUACTT against Efna2", "z-score": "inactive: 0.842"}, {"sequence": "GGCUGUGGAACACAUCAACTT against Eno3", "z-score": "inactive: 0.441"}, {"sequence": "GUAUGAACACGCAGCAAACTT against Mmd2", "z-score": "inactive: -1.93"}, {"sequence": "GGCAUGAGAAUUGGUCCAGTT against Ehd4", "z-score": "inactive: -2.32"}, {"sequence": "GGGUCUACGAAGAAUAGGGTT against Cxcl14", "z-score": "inactive: 0.248"}, {"sequence": "CCGGCAUUACCGAUCGUAATT against Tacstd1", "z-score": "inactive: -0.451"}, {"sequence": "GGGACCUCCAUCGUAUUUGTT against Slc29a4", "z-score": "inactive: 0.15"}]}]}
